Source: patent US20250032632A1 (published 2025)
No constants are given. Whether binding was seen depends on the method and setting. Some binding calls cover weakened binding; strength is not graded here.

B1: F6B1P3D12 (mouse monoclonal anti-cMET antibody) (antibody, V domains shown)
VH: QVQLQQSGAELAKPGASVKMSCRASGYTFTSYWMHWVKQRPGQGLDWIGYIKPSTDNTEYNQKFKDKATLTADKSSSTAYMQLSSLTSEDSAVYYCARSYGNYPLMDYWGQGTSVTVSS
VL: QIVLTQSPAIMSASPGEKVTLTCSASSSVTSNYLYWYQQKPGSSPKLWIYSTSNLASGVPARFSGSGSGTSYSLTISSMEAEDAASYFCHQWSSYPPTFGSGTKLEIKR
notes: Mouse hybridoma antibody (ATCC PTA-125826); also called Mouse P3D12
B2: F6BP2D4 (antibody, V domains shown)
VH: QVQLQQSGAELAKPGASVKMSCKASGYTFTSYWMHWVKQRPGQGLEWIGYINPSTDYIEYNQKFKDKATLTAGKSSSTAYMQLSSLTSEDSAVYYCARSYGNFPLMDYWGQGTSVTVSS
VL: QIVLTQSPAIMSASPGEKVTLTCSASSSVSSNYLYWYQQKPGSSPKLWIYSTSNLASGVPVRFSGSGSGTSYSLTISSMEAEDAASYFCHQWSSYPPTFGSGTKLEIKR
notes: Mouse monoclonal antibody
B3: F6B1P1E2 (antibody, V domains shown)
VH: QVQLQQSGAELAKPGASVKMSCKASGYTFTSYWMHWVKQRPGQGLEWIGYINPSTDYTEYNQKFKDKATLTADKSSTTAYMQLSSLTSEDSAVYYCVRSYGNYPLMDYWGQGTSVTVSS
VL: QIVLTQSPAIMSASPGEKVTLTCSASSSVSSNYLYWYHQKPGSSPKLWIYSTSNLASGVPVRFSGSGSGTSYSLTISSMEAEDAASYFCHQWSSYPPTFGSGTKLEIKR
notes: Mouse monoclonal antibody

Each binder was assayed against monkey cMET (Macaca fascicularis, Cynomolgus Macaque) (Cynomolgus Macaque (Macaca fascicularis)) (assay: ELISA, cross-reactivity, NHP (Cynomolgus Macaque) cMET).

Question: With B1 as the binder, how does the binding read?
Answer: binds

Question: B2 was tested. Which binding did it give?
Answer: binds

Question: B3 was tested. Which binding did it give?
Answer: binds
